Values quoted from earlier work, collected in EP1017727B1, “COMPOSITION AND PHARMACEUTICAL PREPARATION CONTAINING SAME FOR THE TREATMENT OF HERPES AND RELATED VIRAL INFECTIONS” (priority 1997, dated 1999).
For at least one compound, name, drawing or mass did not settle the structure.

Test system: HSV-1
Details: Vero cells

SMILES: COc1cc(O)c2c(=O)cc(-c3ccc(OC)c(-c4c(O)cc(O)c5c(=O)cc(-c6ccc(O)cc6)oc45)c3)oc2c1 [ginkgetin]
- IC50 (50% inhibition concentration) against HSV-1: 0:91 µg/ml
